Assay results: publication PMC10656529
The exact form of at least one protein or probe is not confirmed. The comparison behind a weaker result is the experiment's own reference, which may not be listed here. Protein sequences can lack the tags named with them.

Target: T1, H-NS (UniProt P0ACF8)
T1 sequence (looked up, limits assumed): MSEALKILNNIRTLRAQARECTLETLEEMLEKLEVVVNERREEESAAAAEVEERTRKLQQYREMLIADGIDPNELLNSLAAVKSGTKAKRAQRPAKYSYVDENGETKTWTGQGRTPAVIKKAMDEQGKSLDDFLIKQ
Assay: EMSA
Conditions: 200 nM DNA after mixing, serial H-NS dilutions; H-NS in 130 mM NaCl, 20 mM Tris, 10% glycerol, 8 mM β-mercaptoethanol, 3 mM benzamidine, pH 7.2, mixed 1:1 with 400 nM DNA in water; 20 min at 25 °C then 10 min at 4 °C; recombinant protein

Question: Does “AGGGGTTGCCTCAGATTCTCAGTATGTTAGGGTAGAAGCAAGTGACGCTTTCCATTGGGTAGTACATCGACATAGACAAATAAAGGAATCTTTCTATTGCATGGCAATCAAACTCGAGATCAAGAACCTCTACAAGATCTTCGGCGAGCATCCACAGCGAGCGTTCAAGTACATCGAGCAGGGGCTCTCGAAGGAGCAGATCCTGGAGAAGACGGGG (double strand) [DREmut (DRE of NT644, pProU_GC)]” bind?
Answer: Result: binds more weakly
